Results: the supplement of paper PMC4604168 (melanoma cell lines)
Some of the results follow. Repeats are few or missing, and single values can be far off.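 The apoptosis fraction was the count of cleaved-PARP antibody-stained nuclei relative to all DNA-stained nuclei, imaged in 1,536-well plates. Screening doses were set so most cells survived, and baseline and induced cleaved-PARP levels vary greatly across cell lines.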

What was measured:
Assay in all cases: cleaved PARP positive nuclei fraction relative to DMSO control; melanoma cells; higher = more apoptosis
Conditions in all cases: library dose: low library concentration; 72 h
[1] = test system: 501Mel
[2] = test system: A101D
[3] = test system: A2058
[4] = test system: C32
[5] = test system: CBRC008 (line from a melanoma biopsy)
[6] = test system: CBRC014 (line from a melanoma biopsy)
[7] = test system: CBRC016 (line from a melanoma biopsy)
[8] = test system: CBRC017 (line from a melanoma biopsy)
[9] = test system: COLO792
[10] = test system: COLO800
[11] = test system: COLO829
[12] = test system: G361
[13] = test system: IPC-298
[14] = test system: IST-MEL1
[15] = test system: LB2518-MEL
[16] = test system: LOXIMVI

SMILES | cleaved PARP positive nuclei fraction [1] | cleaved PARP positive nuclei fraction [2] | cleaved PARP positive nuclei fraction [3] | cleaved PARP positive nuclei fraction [4] | cleaved PARP positive nuclei fraction [5] | cleaved PARP positive nuclei fraction [6] | cleaved PARP positive nuclei fraction [7] | cleaved PARP positive nuclei fraction [8] | cleaved PARP positive nuclei fraction [9] | cleaved PARP positive nuclei fraction [10] | cleaved PARP positive nuclei fraction [11] | cleaved PARP positive nuclei fraction [12] | cleaved PARP positive nuclei fraction [13] | cleaved PARP positive nuclei fraction [14] | cleaved PARP positive nuclei fraction [15] | cleaved PARP positive nuclei fraction [16]
O=C(Nc1cc(C(F)(F)F)cc(C(F)(F)F)c1)c1cc(Cl)ccc1O + COc1cc2ncnc(Nc3ccc(Oc4ccccc4)cc3)c2cc1OC [SrcI1] (first compound 0.016 µM, partner dose 2 µM) | 192% | 37.7% | 63.9% | 121% | 391% | 105% | 74.9% | 132% | 141% | 25.7% | 111% | 73.9% | 165% | 45.8% | 93.3% | 98.1%
O=C(/C=C/c1cccnc1)NCCCCC1CCN(C(=O)c2ccccc2)CC1 + COC(=O)c1sccc1S(=O)(=O)Nc1ccc(Nc2ccccc2)cc1OC [GSK0660] (first compound 0.01 µM, partner dose 1 µM) | 81.5% | 75.2% | 105% | 130% | 1080% | 132% | 425% | 381% | 459% | 351% | 159% | 4670% | 264% | 84% | 198% | 65.7%
Cc1ccc(Nc2nccc(N(C)c3ccc4c(C)n(C)nc4c3)n2)cc1S(N)(=O)=O [Pazopanib] + Cn1cc(/C=C2\C(=O)Nc3cccnc32)c2ccccc21 [GW441756] (first compound 0.4 µM, partner dose 0.4 µM) | 64.3% | 26.8% | 141% | 38.6% | 195% | 189% | 60% | 107% | 71.9% | 46.9% | 71.2% | 91.4% | 53.4% | 171% | 36.4% | 126%
O=c1[nH]nc(Sc2ncc([N+](=O)[O-])s2)n1-c1ccc2c(c1)OCCO2 + COC(=O)c1sccc1S(=O)(=O)Nc1ccc(Nc2ccccc2)cc1OC [GSK0660] (first compound 0.2 µM, partner dose 1 µM) | 66% | 35.2% | 50.8% | 130% | 147% | 135% | 89.8% | 75.6% | 127% | 99.1% | 125% | 81.2% | 135% | 237% | 54% | 102%
Cc1ccc(Nc2nccc(N(C)c3ccc4c(C)n(C)nc4c3)n2)cc1S(N)(=O)=O [Pazopanib] + Oc1cc(-c2nc(-c3ccccc3)[nH]c2-c2ccncc2)ccc1Cl [L779450] (first compound 0.4 µM, partner dose 0.2 µM) | 169% | 46.2% | 61% | 133% | 62.1% | 90.5% | 73.9% | 95.1% | 105% | 87.9% | 161% | 187% | 57.1% | 189% | 71.5% | 96.4%
COc1cc([C@@H]2c3cc4c(cc3[C@@H](O[C@@H]3O[C@@H]5CO[C@@H](C)O[C@H]5[C@H](O)[C@H]3O)[C@H]3COC(=O)[C@H]23)OCO4)cc(OC)c1O [etoposide] + CC(C)CCN1c2nc(Nc3cc(F)c(O)c(F)c3)ncc2N(C)C(=O)C1C [BID1870] (first compound 0.02 µM, partner dose 0.2 µM) | 68.5% | 20.1% | 56.2% | 39.7% | 219% | 103% | 121% | 87% | 69.4% | 224% | 139% | 71.9% | 66.9% | 63.3% | 77.8% | 46.6%
Cc1ccc(Nc2nccc(N(C)c3ccc4c(C)n(C)nc4c3)n2)cc1S(N)(=O)=O [Pazopanib] + COc1cc(N2CCC(N3CCN(C)CC3)CC2)ccc1Nc1ncc(Cl)c(Nc2ccccc2S(=O)(=O)C(C)C)n1 [NVP-TAE684] (first compound 0.4 µM, partner dose 0.08 µM) | 72.9% | 31.5% | 98.5% | 75.8% | 59.4% | 108% | 15.7% | 111% | 142% | 185% | 160% | 92.4% | 206% | 119% | 71.3% | 79.5%
Cc1ccc(Nc2nccc(N(C)c3ccc4c(C)n(C)nc4c3)n2)cc1S(N)(=O)=O [Pazopanib] + N#Cc1c(O)c2c(-c3ccc(-c4ccccc4O)cc3)csc2[nH]c1=O [A769662] (first compound 0.4 µM, partner dose 2 µM) | 58.5% | 9.11% | 74.5% | 69.8% | 113% | 98.5% | 75.7% | 64.4% | 204% | 81.9% | 108% | 84.4% | 38.1% | 94.7% | 45.8% | 179%
O=c1[nH]nc(Sc2ncc([N+](=O)[O-])s2)n1-c1ccc2c(c1)OCCO2 + COc1cc2ncnc(Nc3ccc(Oc4ccccc4)cc3)c2cc1OC [SrcI1] (first compound 0.2 µM, partner dose 2 µM) | 69.6% | 36.3% | 45.3% | 78.4% | 104% | 111% | 49.7% | 96.7% | 95% | 51.5% | 122% | 70% | 47.1% | 187% | 157% | 120%
O=C(Nc1cc(C(F)(F)F)cc(C(F)(F)F)c1)c1cc(Cl)ccc1O + CC(C)CCN1c2nc(Nc3cc(F)c(O)c(F)c3)ncc2N(C)C(=O)C1C [BID1870] (first compound 0.016 µM, partner dose 0.2 µM) | 43.6% | 37.2% | 82% | 115% | 111% | 90.4% | 124% | 97.5% | 97.4% | 104% | 80.4% | 64.4% | 112% | 105% | 37.2% | 97.6%
O=C(/C=C/c1cccnc1)NCCCCC1CCN(C(=O)c2ccccc2)CC1 + O=C(O)C(=O)Nc1sc2c(c1C(=O)O)CCNC2 [TCS401] (first compound 0.01 µM, partner dose 1.66667 µM) | 42.1% | 36.5% | 34.7% | 34.2% | 1130% | 75.2% | 141% | 332% | 109% | 236% | 229% | 2500% | 252% | 180% | 139% | 62.4%
Cc1ccc(Nc2nccc(N(C)c3ccc4c(C)n(C)nc4c3)n2)cc1S(N)(=O)=O [Pazopanib] + COC(=O)c1sccc1S(=O)(=O)Nc1ccc(Nc2ccccc2)cc1OC [GSK0660] (first compound 0.4 µM, partner dose 1 µM) | 38% | 39.7% | 84.3% | 60.8% | 82.1% | 120% | 86.5% | 123% | 46.3% | 63.2% | 134% | 172% | 124% | 127% | 71.3% | 108%
O=C(Nc1cc(C(F)(F)F)cc(C(F)(F)F)c1)c1cc(Cl)ccc1O + N#Cc1c(O)c2c(-c3ccc(-c4ccccc4O)cc3)csc2[nH]c1=O [A769662] (first compound 0.016 µM, partner dose 2 µM) | 61.5% | 28.1% | 109% | 35% | 178% | 81.6% | 32.6% | 119% | 106% | 34% | 196% | 81% | 95.5% | 266% | 138% | 142%
